Experimental findings from patent publication US20250360138A1 (priority 2022, published 2025) are described below.

This data set concerns HEK293T. In words: Mammalian cytotoxicity counter screen, luminescent ATP viability assay. It is filed as cell-based, human. As to conditions: toxicity in mammalian cell cultures versus G. lamblia GS-clone 7 trophozoites. In general terms: A counterscreen serves to expose hits that act by an unwanted route or on another target.

Structures are written as SMILES.

For `CS(=O)(=O)OCCN(CCBr)c1c(C(=O)NCCOP(=O)(O)O)cc([N+](=O)[O-])cc1[N+](=O)[O-]` [PR-104], the “Selectivity index (SI), CC50/EC50” value is greater than 13.

Consider `CC(=O)C[C@H]1CCCCN1` [pelletierine], for which the “Selectivity index (SI), CC50/EC50” value is greater than 1.
